# Assay results published in patent publication US12203938B2, “Levetiracetam immunoassays” (ARK Diagnostics, Inc., priority 2008, dated 2025).
# Test system: rabbit polyclonal antibody #12019-P8
# Experiment: Accuracy of measurement of levetiracetam Quality Control samples in the homogeneous enzyme immunoassay
# Assay type: binding
# Settings: for Mean (μg/mL ± SD): human serum; for Accuracy (%): percentage of the nominal value
# Experimental: The levetiracetam derivative antibodies and enzyme conjugates may be advantageously used in a homogeneous assay format to detect levetiracetam in samples. An enzyme immunoassay or ARK Assay, which is a homogeneous enzyme immunoassay experiment, was performed to test antibodies prepared as described in Example 22. The ARK Assay for levetiracetam was conducted using a liquid, ready-to-use, two-reagent kit. A clinical chemistry analyzer useful to set up the assay is HITACHI 917. The HITACHI 917 is an automated biochemistry analyzer used by medical laboratories to process biological fluid specimens, such as urine, cerebrospinal fluid, and most commonly, blood. Manufactured by Boehringer Mannheim, the HITACHI 917 is a commonly used routine chemical chemistry. Levetiracetam containing sample was incubated with antibody reagent followed by the addition of the enzyme conjugate reagent. The enzyme conjugate activity decreases upon binding to the antibody. […] The oxidation of G6P is coupled with the reduction of NAD to NADH, which was measured at 340 nm. The change in the absorbance at 340 nm was measured spectrophotometrically. The levetiracetam concentration in a specimen was measured in terms of G6PDH activity. The increase in the rate at 340 nm was due to the formation of NADH and is proportional to the enzyme conjugate activity. An assay calibration curve was generated using levetiracetam spiked into negative calibrator matrix. The assay rate increases with increasing the concentration of drug in the sample.
# Levetiracetam was dissolved in methanol to give a stock solution of 1000 μg/mL. Pooled human serum was aliquoted in 10 mL portions. Levetiracetam stock solution was added to the aliquots of human serum in preparing a series of known concentrations of levetiracetam calibrators ranging from 0 to 100 μg/mL. Similarly, Quality Control samples were prepared (15.0, 35.0 and 75.0 μg/mL). The antibody/substrate reagent #11341P4-6-Ab containing antibody ##12019-P8 was assayed with enzyme reagent #110607-D63-E containing conjugate (44-G6PDH). Calibration curves were generated on the HITACHI 917 automated clinical chemistry analyzer, as described in Example 23 by assaying each level in duplicate.
# Three levetiracetam Quality Control samples were prepared as described in Example 24 to give concentrations of levetiracetam of 15.0, 35.0 and 75.0 μg/mL. Enzyme Conjugate Reagent #110607-D63-E containing conjugate (44-G6PDH) and Antibody Reagent #11341P4-6-Ab containing antibody ##12019-P8 was used to generate precision data shown in Table 3. The accuracy data were derived from 2 runs on the same day. Each run for generating a calibration curve includes 10 replicates of each QC level per run with a total of 20 replicates from 2 runs.
# Quantification was performed on the HITACHI 917 analyzer as described in Example 23. Also, the accuracy of the measurement was calculated as a percentage of the nominal value of the QC samples (Table 3).
compound,measurement,setting,value
"CC[C@@H](C(N)=O)N1CCCC1=O (single isomer, unassigned) [Levetiracetam]",Mean (μg/mL ± SD),QC Conc. 15.0 μg/mL,14.88 ± 1.02 µg/mL
same,Accuracy (%),QC Conc. 15.0 μg/mL,99.21%
same,Mean (μg/mL ± SD),QC Conc. 35.0 μg/mL,35.77 ± 2.85 µg/mL
same,Accuracy (%),QC Conc. 35.0 μg/mL,102.19%
same,Mean (μg/mL ± SD),QC Conc. 75.0 μg/mL,77.16 ± 4.48 µg/mL
same,Accuracy (%),QC Conc. 75.0 μg/mL,102.88%
